Experimental data taken from PMC8844723.
These are yes or no findings as the source states them, for the method shown. Binding seen in cells or lysates may run through a third protein. A result given as binding can be weak or reduced; the word gives no strength. Tags and fused reporters may be left off the sequences shown.

Molecular target: T1, human TMEM106A, myc-tagged (human) (UniProt Q96A25)
T1 sequence: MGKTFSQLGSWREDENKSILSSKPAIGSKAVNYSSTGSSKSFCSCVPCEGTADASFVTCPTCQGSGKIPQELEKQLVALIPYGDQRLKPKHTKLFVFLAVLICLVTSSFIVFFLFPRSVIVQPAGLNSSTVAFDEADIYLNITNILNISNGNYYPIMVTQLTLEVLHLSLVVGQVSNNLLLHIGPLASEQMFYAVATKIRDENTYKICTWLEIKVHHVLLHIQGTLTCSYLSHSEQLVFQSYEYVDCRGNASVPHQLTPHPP
Experiment: co-IP

| Substance | binding |
| --- | --- |
| HIV-1 gp120, C-terminally FLAG-tagged (domain or fragment) | binds |
| HIV-1 Env gp160, C-terminally FLAG-tagged | binds |
